Experimental data reported in paper PMC11443168.
Where a chain is given by its changes, count along the chain named. No constants are given. Whether binding was seen depends on the method and setting. For some of these results: In cells and extracts the contact can be indirect. Some results given as binding are weak or reduced against the parent protein; the word gives no strength. Tags and fused reporters may be left off the sequences shown. One block for each binder: values may come before it.

Key:
[1] = target: T1, TMX5/TXNDC15, V5-tagged (TMX5-V5 WT) (UniProt Q96J42); assay: co-IP; V5-TMX5 or V5-TMX5 C220A immunoisolated with anti-V5 beads from HEK293 lysates (RIPA, 20 mM NEM); non-reducing and reducing SDS-PAGE; Western blot for endogenous PDI, ERp57, ERp44
T1 sequence: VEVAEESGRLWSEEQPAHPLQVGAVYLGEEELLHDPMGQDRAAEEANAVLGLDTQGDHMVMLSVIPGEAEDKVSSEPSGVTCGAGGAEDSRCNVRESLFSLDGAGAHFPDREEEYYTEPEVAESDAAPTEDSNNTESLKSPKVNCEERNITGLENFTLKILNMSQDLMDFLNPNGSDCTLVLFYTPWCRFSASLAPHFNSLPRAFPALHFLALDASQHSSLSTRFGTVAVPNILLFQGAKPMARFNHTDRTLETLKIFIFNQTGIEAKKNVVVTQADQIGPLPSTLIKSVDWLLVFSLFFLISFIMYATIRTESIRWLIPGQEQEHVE

TMX5_(C220A), V5-tagged [2] = target: T2, TMX5_(C220A), V5-tagged (UniProt Q96J42); assay: as above
T2 sequence: T1 sequence with C188A

[3] = target: T1, TMX5/TXNDC15, V5-tagged (TMX5-V5 WT); assay: non-reducing SDS-PAGE and Western blot of mixed disulfides; post-nuclear fractions of HEK293 cells co-transfected with V5-tagged TMX5 or TMX5 C220A and HA-tagged ERp44 or ERp44 C29S; no immunoprecipitation; anti-V5 blot in non-reducing and reducing conditions; TMX5-ss-ERp44 band
TMX5_(C220A), V5-tagged [4] = target: T2, TMX5_(C220A), V5-tagged; assay: as above
TMX5_(C210A), V5-tagged = target: T3, TMX5_(C210A), V5-tagged (UniProt Q96J42); assay: co-IP; HEK293 cells co-expressing V5-tagged TMX5 (or cysteine mutants) and HA-tagged ERp44 (or C29S); immunoisolation with anti-V5 antibodies (TMX5 as bait), non-reducing/reducing SDS-PAGE, Western blot with anti-HA
T3 sequence: T1 sequence with C178A

TMX5_(C124A), V5-tagged = target: T4, TMX5_(C124A), V5-tagged (UniProt Q96J42); assay: as above
T4 sequence: T1 sequence with C92A

TMX5_(C114A), V5-tagged = target: T5, TMX5_(C114A), V5-tagged (UniProt Q96J42); assay: as above
T5 sequence: T1 sequence with C82A

[5] = target: T1, TMX5/TXNDC15, V5-tagged (TMX5-V5 WT); assay: as above
TMX5_(C220A), V5-tagged [6] = target: T2, TMX5_(C220A), V5-tagged; assay: as above
TMX5_(C177A), V5-tagged = target: T6, TMX5_(C177A), V5-tagged (UniProt Q96J42); assay: as above
T6 sequence: T1 sequence with C145A

binding [1]: binds | binding (TMX5_(C220A), V5-tagged [2]): binds
B1: endogenous ERp44 (protein, UniProt Q9BS26 30-406)
chain: EITSLDTENIDEILNNADVALVNFYADWCRFSQMLHPIFEEASDVIKEEFPNENQVVFARVDCDQHSDIAQRYRISKYPTLKLFRNGMMMKREYRGQRSVKALADYIRQQKSDPIQEIRDLAEITTLDRSKRNIIGYFEQKDSDNYRVFERVANILHDDCAFLSAFGDVSKPERYSGDNIIYKPPGHSAPDMVYLGAMTNFDVTYNWIQDKCVPLVREITFENGEELTEEGLPFLILFHMKEDTESLEIFQNEVARQLISEKGTINFLHADCDKFRHPLLHIQKTPADCPVIAIDSFRHMYVFGDFKDVLIPGKLKQFVFDLHSGKLHREFHHGPDPTDTAPGEQAQDVASSPPESSFQKLAPSEYRYTLLRDRDEL

binding [3]: binds | binding (TMX5_(C220A), V5-tagged [4]): binds | binding (TMX5_(C210A), V5-tagged): binds | binding (TMX5_(C124A), V5-tagged): binds | binding (TMX5_(C114A), V5-tagged): binds | binding [5]: binds | binding (TMX5_(C220A), V5-tagged [6]): binds | binding (TMX5_(C177A), V5-tagged): binds
B2: HA-tagged ERp44 (ERp44wt) (protein, UniProt Q9BS26 30-406)
chain: B1 chain
